Record: PubChem BioAssay AID1224830 (NIAID, 2016)

- Assay: 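Regulators of TLR4 signalling towards TNF-alpha in macrophage-like cells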 (primary screen)
- System: human THP-1 monocytic leukaemia cells, TNF dual-luciferase reporter clone, PMA-differentiated to macrophage-like cells
- Knock-down reagent: siRNA pool against human genes, 50 nM
- Duration: LPS for 4 h, given about 3 days after siRNA transfection
- Treatment: bacterial LPS (TLR4 ligand), 10 ng/ml
- Detection: 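Ratio of firefly to renilla light, scaled to the plate median and expressed as a robust z-score per replicate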
- Direction: TNF reporter robust z-score: higher = stronger TNF reporter response to LPS
- Rule for the call: 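a well is active when its z-score exceeds 2.8 or falls below -1.5; control wells carry no call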
The whole screen tested about 18,000 reagents; this is a part drawn at random. About 2,900 of all reagents (16%) were called active. 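Calls are made per well; low scores hint the gene aids the LPS response, high scores that it dampens it.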 Repeated entries: four replicate wells of each siRNA pool.

gene | TNF reporter robust z-score | outcome
TRPV4 | -0.48 | inactive
TRPV4 | 0.44 | inactive
TRPV4 | 0.42 | inactive
TRPV4 | 2.03 | inactive
PDE4DIP | 0.93 | inactive
PDE4DIP | 2.12 | inactive
PDE4DIP | -0.89 | inactive
PDE4DIP | -0.24 | inactive
CEP192 | -0.2 | inactive
CEP192 | -0.17 | inactive
CEP192 | -0.18 | inactive
CEP192 | 0.35 | inactive
PYCARD | 1.22 | inactive
PYCARD | 1.31 | inactive
PYCARD | 1.15 | inactive
PYCARD | 1.48 | inactive
FASTKD5 | -0.89 | inactive
FASTKD5 | 0.29 | inactive
FASTKD5 | -0.48 | inactive
FASTKD5 | -1.36 | inactive
CXCL12 | 2.02 | inactive
CXCL12 | 3.45 | active
CXCL12 | -0.27 | inactive
CXCL12 | 0.31 | inactive
ZNRD2 | 0.72 | inactive
ZNRD2 | -0.56 | inactive
ZNRD2 | 1.4 | inactive
ZNRD2 | -0.08 | inactive
SSX9P | -1.08 | inactive
SSX9P | -0.97 | inactive
SSX9P | -0.73 | inactive
SSX9P | 0.13 | inactive
PFKM | 0.13 | inactive
PFKM | 0.83 | inactive
PFKM | 0.02 | inactive
PFKM | 0.63 | inactive
TMSB15A | -1.49 | inactive
TMSB15A | -1.37 | inactive
TMSB15A | -1.55 | active
TMSB15A | -1.14 | inactive
UBXN1 | -1.08 | inactive
UBXN1 | -1.1 | inactive
UBXN1 | 0.4 | inactive
UBXN1 | -0.22 | inactive
VOPP1 | 0.28 | inactive
VOPP1 | -0.81 | inactive
VOPP1 | -1.44 | inactive
VOPP1 | -0.45 | inactive
FSD1 | 0.81 | inactive
FSD1 | 2.43 | inactive
FSD1 | 2.68 | inactive
FSD1 | 3.54 | active
TNNT3 | -0.17 | inactive
TNNT3 | 0.22 | inactive
TNNT3 | 0.78 | inactive
TNNT3 | -0.27 | inactive
CBY2 | 0.3 | inactive
CBY2 | 1.44 | inactive
CBY2 | 0.9 | inactive
CBY2 | 0.53 | inactive
HTR7 | -0.4 | inactive
HTR7 | -0.28 | inactive
HTR7 | -0.45 | inactive
HTR7 | 1.21 | inactive
ZNF189 | -0.71 | inactive
ZNF189 | 1.49 | inactive
ZNF189 | -0.69 | inactive
ZNF189 | 0.32 | inactive
ZNF683 | -0.94 | inactive
ZNF683 | -0.57 | inactive
ZNF683 | -0.99 | inactive
ZNF683 | -0.7 | inactive
TSPAN11 | 2.28 | inactive
TSPAN11 | 4.34 | active
TSPAN11 | 1.38 | inactive
TSPAN11 | -1.01 | inactive

Records above called active:
gene | TNF reporter robust z-score | outcome
CXCL12 | 3.45 | active
TMSB15A | -1.55 | active
FSD1 | 3.54 | active
TSPAN11 | 4.34 | active
